Results published in publication PMC7144586.
Results are given in words; binding and its absence hold for the method and conditions named. Binding seen in cells or lysates may run through a third protein. Some results given as binding are weak or reduced against the parent protein; the word gives no strength. For some assays here: Sequences can lack the tags named with a protein. Each block holds one molecule with its values, some of them ahead of it.

Protein sequences, listed by entry. Tags and fused reporters are not part of them.
UniProt P04899: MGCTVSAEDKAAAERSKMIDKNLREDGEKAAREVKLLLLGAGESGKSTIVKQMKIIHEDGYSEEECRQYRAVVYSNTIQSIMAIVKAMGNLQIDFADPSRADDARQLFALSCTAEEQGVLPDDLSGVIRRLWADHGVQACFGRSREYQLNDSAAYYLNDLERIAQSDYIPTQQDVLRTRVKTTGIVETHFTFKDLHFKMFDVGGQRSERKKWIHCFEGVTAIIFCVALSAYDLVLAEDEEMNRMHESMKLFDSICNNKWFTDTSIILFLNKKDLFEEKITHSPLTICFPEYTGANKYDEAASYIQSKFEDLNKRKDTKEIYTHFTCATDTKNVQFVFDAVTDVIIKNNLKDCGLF

What was measured:
[1] = molecular target: T1, ELMO2-Flag (UniProt Q96JJ3); experiment: co-IP; lysates of transfected PANC-1 cells (RIPA lysis buffer with PMSF) incubated overnight with monoclonal anti-Flag antibody, captured on protein A/G magnetic beads, eluted by boiling, blotted with anti-Gαi2 and anti-ELMO2; control rabbit IgG in parallel
T1 sequence: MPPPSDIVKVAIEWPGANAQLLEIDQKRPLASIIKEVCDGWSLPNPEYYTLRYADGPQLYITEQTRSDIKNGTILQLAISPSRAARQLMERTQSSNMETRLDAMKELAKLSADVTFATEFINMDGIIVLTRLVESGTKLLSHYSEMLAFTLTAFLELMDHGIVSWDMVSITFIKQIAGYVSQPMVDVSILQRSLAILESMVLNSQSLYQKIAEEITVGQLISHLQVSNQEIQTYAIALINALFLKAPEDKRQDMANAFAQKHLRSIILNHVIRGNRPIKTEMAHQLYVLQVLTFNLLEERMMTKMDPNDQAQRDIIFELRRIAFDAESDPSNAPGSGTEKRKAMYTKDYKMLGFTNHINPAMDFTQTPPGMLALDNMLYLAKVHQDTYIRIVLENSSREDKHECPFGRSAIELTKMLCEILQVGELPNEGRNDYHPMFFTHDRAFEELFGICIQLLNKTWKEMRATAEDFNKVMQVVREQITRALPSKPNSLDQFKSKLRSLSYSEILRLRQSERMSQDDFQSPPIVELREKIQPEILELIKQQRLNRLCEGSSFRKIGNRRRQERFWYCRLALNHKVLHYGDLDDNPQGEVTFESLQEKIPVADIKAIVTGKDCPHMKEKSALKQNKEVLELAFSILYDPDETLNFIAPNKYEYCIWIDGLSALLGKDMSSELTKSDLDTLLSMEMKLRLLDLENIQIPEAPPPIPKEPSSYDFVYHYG

[2] = molecular target: Gαi2-Flag (UniProt P04899); experiment: as above

binding [1]: binds
Molecule: Gαi2 (endogenous) (from UniProt P04899 1-355)

binding [2]: binds
B1: ELMO2 (endogenous) (protein, UniProt Q96JJ3 1-720)
chain: T1 sequence
